Source: PubChem BioAssay AID1159508 (Drosophila RNAi Screening Center, 2015)
The whole screen tested 812 reagents; below is a random part of them. 18 of all reagents (2.2%) count as active. 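Calls include both increased and decreased ATP; roughly one in four reagents has no third replicate value.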 Unmarked entries are inactive. The numbers tell different reagents against one gene apart. No sequences are given here. The record does not give: the amount of reagent.

Aim: 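Overall cell fitness after RNAi as a quality check of the library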
System: Drosophila S2R+ cells
Knock-down reagent: long dsRNA against Drosophila genes
Duration: 5 days
Measured: 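Luminescent ATP signal as a proxy for cell fitness after 5 days of RNAi, given as a z-score in each replicate and averaged over replicates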
Reading the numbers: mean ATP z-score and ATP z-score: higher = more total ATP luminescence
Active means: In these data the active calls have mean ATP z-score at about -2 or lower, or at about 2 or higher
Calls: active = strong ATP change (up or down); inactive = no strong ATP change

no.	Gene	reagent	mean ATP z-score	ATP z-score, replicate 1	ATP z-score, replicate 2	ATP z-score, replicate 3
1	CG14628	1	1.5	0.687	1.38	2.15
2	CG14628	2	-0.403	-0.533	-0.378	-0.22
3	Dus2	1	-0.39	-0.763	-0.428	0.0949
4	Dus2	2	0.445	-0.00751	0.303	0.953
5	aub	1	-0.525	-0.766	-0.716	0.00885
6	aub	2	0.266	-0.157	0.322	0.583
7	mof	1	-0.244	-0.607	-0.305	0.226
8	mof	2	-0.983	-1.49	-0.9	-0.374
9	SrpRalpha	1	-0.0369	-0.149	-0.0542	0.0994
10	SrpRalpha	2	-0.278	-0.467	-0.251	-0.0639
11	pit	1	0.8	0.489	0.631	1.12
12	pit	2	0.419	0.227	0.557	
13	Trmt6	1	-0.345	-0.435	-0.308	-0.227
14	Trmt6	2	-0.329	-0.673	-0.185	-0.0651
15	Son	1	0.383	0.111	0.411	0.552
16	Son	2	0.679	0.387	0.547	0.973
17	DIP1	1	0.808	-0.137	0.762	1.64
18	DIP1	2	-0.122	-0.169	-0.0865	-0.0856
19	mEFG1	1	1.34	0.73	1.46	1.56
20	mEFG1	2	-1.38	-1.44	-1.39	-1.06
21	sbr	1	-0.113	-0.403	0.192	
22	sbr	2	-1.01	-1.13	-0.93	-0.767
23	CG3808	1	0.923	0.313	1.06	1.22
24	CG3808	2	1.38	0.781	1.43	1.67
25	eIF3j	1	-0.778	-1.01	-0.721	-0.457
26	eIF3j	2	-0.488	-0.519	-0.393	
27	Hmu	1	0.466	0.312	0.559	
28	Hmu	2	0.471	-0.0373	0.919	
29	drosha	1	0.27	-0.0838	0.274	0.567
30	drosha	2	1.5	0.762	1.35	2.1
31	l(1)G0004	1	-0.605	-0.822	-0.638	-0.24
32	l(1)G0004	2	0.0133	-0.224	-0.217	0.478
33	CG8611	1	0.574	0.395	0.484	0.731
34	CG8611	2	0.625	0.49	0.578	0.685
35	LS2	1	-0.0229	-0.321	-0.0748	0.331
36	LS2	2	-0.0833	-0.218	0.0622	
37	bru3	1	1.46	1.23	1.26	1.6
38	bru3	2	0.479	-0.733	0.407	1.67
39	CG3335	1	0.336	0.097	0.532	
40	CG3335	2	-0.0691	-0.32	-0.129	0.255
41	Pabp2	1	0.289	0.152	0.389	
42	Pabp2	2	-0.498	-0.546	-0.446	-0.408
43	beta-PheRS	1	-0.98	-0.975	-0.953	-0.822
44	beta-PheRS	2	-1.72	-1.67	-1.66	-1.5
45	apt	1	0.991	0.298	0.872	1.61
46	apt	2	1.2	0.0686	0.982	2.33
47	loqs	1	0.075	-0.138	0.1	0.249
48	loqs	2	-0.0508	-0.13	-0.0847	0.0715
49	La	1	-0.0492	-0.427	0.0668	0.222
50	La	2	-0.299	-0.747	-0.334	0.242
51	CG4849	1	-1.02	-1.37	-0.752	-0.751
52	CG4849	2	-1.03	-1.16	-0.894	-0.841
53	RluA-2	1	0.525	-0.657	-0.365	2.5
54	RluA-2	2	0.753	0.339	0.612	1.16
55	eIF3d2	1	-0.166	-0.325	-0.0721	-0.0685
56	eIF3d2	2	0.511	-0.7	1.03	1.11
57	Su(var)2-10	1	-0.519	-0.574	-0.397	
58	Su(var)2-10	2	2.15 (active)	1.53	1.88	2.62
59	CG3527	1	0.402	0.362	0.391	
60	CG3527	2	-0.235	-0.331	-0.331	0.00284
61	Nmd3	1	0.773	0.566	0.663	0.943
62	Nmd3	2	-0.645	-0.773	-0.716	-0.322
63	CG1316	1	-1.06	-1.43	-0.928	-0.617
64	CG1316	2	0.784	0.649	0.735	0.817
65	Pus1	1	-0.552	-0.54	-0.492	
66	Pus1	2	0.153	-0.443	0.73	
67	Rsf1	1	0.0348	-0.0782	-0.00273	0.179
68	Rsf1	2	0.281	0.165	0.361	
69	Spf30	1	-0.949	-0.956	-0.821	
70	Spf30	2	0.355	-0.0567	-0.0264	1.08
71	mIF3	1	0.643	-0.0464	0.55	1.3
72	mIF3	2	-0.0326	-0.46	0.0599	0.308
73	CG9630	1	-0.384	-0.66	-0.326	-0.091
74	CG9630	2	-0.177	-0.396	-0.258	0.157
75	ytr	1	-0.965	-0.963	-0.896	-0.849
76	ytr	2	0.436	0.27	0.546	

Reagents listed so far called active:
Gene	reagent	mean ATP z-score	ATP z-score, replicate 1	ATP z-score, replicate 2	ATP z-score, replicate 3
Su(var)2-10	2	2.15 (active)	1.53	1.88	2.62
